Data taken from article PMC7661526, “Antibiofilm effects of N,O-acetals derived from 2-amino-1,4-naphthoquinone are associated with downregulation of important global virulence regulators in methicillin-resistant Staphylococcus aureus” (Scientific Reports, 2020).

Experiment: Hemocompatibility assay
Details: human, pH 7.4
Protocol: Erythrocytes were collected from three human volunteers in a citrate tube and washed three times (3×) with PBS (pH 7.4). All derivatives were incubated with the PBS-erythrocyte suspension for 3 h at 37 °C. The hemolysis with the release of hemoglobin was quantified by the spectrophotometric reading of the supernatant at 545 nm. Hemolysis less than 10% represented hemocompatibility and non-toxicity against erythrocyte membranes. For the positive control, the human erythrocytes were lysed with 1% (v/v) Triton X-100. The negative control was performed with 1% (v/v) DMSO only (final concentration). […] All methods were carried out in accordance with relevant guidelines and regulations. In addition, informed consent was obtained from all volunteers. Three independent experiments were performed in triplicate.

O=C(O)c1cn(C2CC2)c2cc(N3CCNCC3)c(F)cc2c1=O [Ciprofloxacin, ciprofloxacin, reference compound]
hemolysis at 3 h: 2.4 ± 0.6%
